# Results as given in patent US9771589B2, “Treating hepatitis virus infection by modulating microRNAs miR-130a, miR-130b, miR-204, or miR-1236” (priority 2013, dated 2017).
# At least one structure is not confirmed: it was looked up by name or label, or the drawing left a doubt.
# Tested on: HBV
# Assay: HBV DNA replication after cotransfection/treatment, Southern blot
# Format: cell-based, hepatitis B virus (HBV ayw)
# Details: HBV-transfected Huh7 cells, increasing concentration of compound
# Source text: The methods to construct the miRNA expression vectors are as detailed elsewhere. Chen, H. L. et al. PloS one 7, e34116 (2012). PCR products were sub-cloned from TA cloning vector (RBC) to pSuper (OligoEngine, Inc) by Hind III digestion. All plasmids were confirmed by sequencing. Approximately 8-400 fold higher level of microRNA expression was detected by transfection and stem loop RT-PCR analysis. […] The PPARγ and PGC1α expression vectors were from GeneCopoeia.
# Human hepatoma Huh7 and HepG2 cells were maintained as described previously Chua, P. K., et al. Journal of virology 84, 2340-2351 (2010), Le Pogam, S., et al., Journal of virology 79, 1871-1887 (2005). In general, the phenotype of viral replication and the effect of microRNA are stronger in HepG2 than Huh7 cells. However, Huh7 cells are easier to passage and transfect. Therefore, we used these two cell lines interchangeably.
# Rosiglitazone and GW9662 were from Sigma. HepG2 and Huh7 cells were seeded in 6-well tissue culture plates at 5×10, Quasdorff, M. et al. Journal of viral hepatitis 17, 527-536 (2010) cells/well. At 24 h post-transfection, Rosiglitazone or GW9662 in 0.1% DMSO was added to medium. Culture medium was changed ever two days before harvest.
# HBV core particle-associated DNA, total cellular cytoplasmic RNA, and microRNA were analyzed by Northern blot as described previously. […]
smiles,measurement,value
CN(CCOc1ccc(CC2SC(=O)NC2=O)cc1)c1ccccn1 (stereo not shown) [Rosiglitazone],HBV replication,increasing HBV replication was observed
